These are yes or no findings as the source states them, for the method shown. In cells and extracts the contact can be indirect. A yes stands for co-enrichment or nearness to the bait. Other partners may have been found.
Key:
[1] = biological target: Cullin-4b (mouse (endogenous in CD4+ T cells)) (UniProt A2A432); test: affinity purification with mass spectrometry; endogenous IP from mouse CD4+ T cells activated with anti-CD3/CD28 for 40 h; lysate in 1% Triton-X, 50 mM Tris pH 8, 100 mM NaCl; Dynabeads with Cul4b antibody, DCAF1 antibody or rabbit IgG, overnight in cold room; 4 washes PBS-Tween 0.2%; LC-MS/MS
[2] = biological target: Vprbp (DCAF1) (mouse (endogenous in CD4+ T cells)) (UniProt Q80TR8); test: as above

By UniProt entry, the sequences of proteins in these tests, tags left out.
UniProt A2A432: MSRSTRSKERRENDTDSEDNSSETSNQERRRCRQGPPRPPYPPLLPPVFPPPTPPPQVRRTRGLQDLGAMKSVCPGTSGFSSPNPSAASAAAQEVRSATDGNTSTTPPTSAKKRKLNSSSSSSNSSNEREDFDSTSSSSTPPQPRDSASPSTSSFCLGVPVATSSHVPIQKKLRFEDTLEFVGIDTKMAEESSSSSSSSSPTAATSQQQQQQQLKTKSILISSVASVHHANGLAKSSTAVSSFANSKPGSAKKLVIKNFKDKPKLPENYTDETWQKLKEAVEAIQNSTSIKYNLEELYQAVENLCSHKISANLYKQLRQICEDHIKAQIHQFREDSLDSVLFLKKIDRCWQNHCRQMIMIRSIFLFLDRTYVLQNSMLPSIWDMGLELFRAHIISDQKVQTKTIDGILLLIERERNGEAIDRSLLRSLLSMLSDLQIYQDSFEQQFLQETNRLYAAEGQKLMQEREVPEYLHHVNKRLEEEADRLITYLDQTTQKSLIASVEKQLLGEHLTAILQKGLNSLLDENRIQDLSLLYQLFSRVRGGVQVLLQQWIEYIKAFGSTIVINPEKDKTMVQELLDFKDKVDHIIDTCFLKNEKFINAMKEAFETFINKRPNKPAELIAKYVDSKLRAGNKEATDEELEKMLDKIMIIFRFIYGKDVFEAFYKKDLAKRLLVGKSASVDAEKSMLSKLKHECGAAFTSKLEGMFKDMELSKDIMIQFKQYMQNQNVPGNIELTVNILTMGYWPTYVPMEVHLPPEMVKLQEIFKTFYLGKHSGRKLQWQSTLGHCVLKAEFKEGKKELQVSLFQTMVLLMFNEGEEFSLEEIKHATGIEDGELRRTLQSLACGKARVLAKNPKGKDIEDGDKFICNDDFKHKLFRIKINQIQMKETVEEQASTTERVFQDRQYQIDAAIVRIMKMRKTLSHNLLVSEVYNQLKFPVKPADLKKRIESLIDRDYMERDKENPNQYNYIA
UniProt Q80TR8: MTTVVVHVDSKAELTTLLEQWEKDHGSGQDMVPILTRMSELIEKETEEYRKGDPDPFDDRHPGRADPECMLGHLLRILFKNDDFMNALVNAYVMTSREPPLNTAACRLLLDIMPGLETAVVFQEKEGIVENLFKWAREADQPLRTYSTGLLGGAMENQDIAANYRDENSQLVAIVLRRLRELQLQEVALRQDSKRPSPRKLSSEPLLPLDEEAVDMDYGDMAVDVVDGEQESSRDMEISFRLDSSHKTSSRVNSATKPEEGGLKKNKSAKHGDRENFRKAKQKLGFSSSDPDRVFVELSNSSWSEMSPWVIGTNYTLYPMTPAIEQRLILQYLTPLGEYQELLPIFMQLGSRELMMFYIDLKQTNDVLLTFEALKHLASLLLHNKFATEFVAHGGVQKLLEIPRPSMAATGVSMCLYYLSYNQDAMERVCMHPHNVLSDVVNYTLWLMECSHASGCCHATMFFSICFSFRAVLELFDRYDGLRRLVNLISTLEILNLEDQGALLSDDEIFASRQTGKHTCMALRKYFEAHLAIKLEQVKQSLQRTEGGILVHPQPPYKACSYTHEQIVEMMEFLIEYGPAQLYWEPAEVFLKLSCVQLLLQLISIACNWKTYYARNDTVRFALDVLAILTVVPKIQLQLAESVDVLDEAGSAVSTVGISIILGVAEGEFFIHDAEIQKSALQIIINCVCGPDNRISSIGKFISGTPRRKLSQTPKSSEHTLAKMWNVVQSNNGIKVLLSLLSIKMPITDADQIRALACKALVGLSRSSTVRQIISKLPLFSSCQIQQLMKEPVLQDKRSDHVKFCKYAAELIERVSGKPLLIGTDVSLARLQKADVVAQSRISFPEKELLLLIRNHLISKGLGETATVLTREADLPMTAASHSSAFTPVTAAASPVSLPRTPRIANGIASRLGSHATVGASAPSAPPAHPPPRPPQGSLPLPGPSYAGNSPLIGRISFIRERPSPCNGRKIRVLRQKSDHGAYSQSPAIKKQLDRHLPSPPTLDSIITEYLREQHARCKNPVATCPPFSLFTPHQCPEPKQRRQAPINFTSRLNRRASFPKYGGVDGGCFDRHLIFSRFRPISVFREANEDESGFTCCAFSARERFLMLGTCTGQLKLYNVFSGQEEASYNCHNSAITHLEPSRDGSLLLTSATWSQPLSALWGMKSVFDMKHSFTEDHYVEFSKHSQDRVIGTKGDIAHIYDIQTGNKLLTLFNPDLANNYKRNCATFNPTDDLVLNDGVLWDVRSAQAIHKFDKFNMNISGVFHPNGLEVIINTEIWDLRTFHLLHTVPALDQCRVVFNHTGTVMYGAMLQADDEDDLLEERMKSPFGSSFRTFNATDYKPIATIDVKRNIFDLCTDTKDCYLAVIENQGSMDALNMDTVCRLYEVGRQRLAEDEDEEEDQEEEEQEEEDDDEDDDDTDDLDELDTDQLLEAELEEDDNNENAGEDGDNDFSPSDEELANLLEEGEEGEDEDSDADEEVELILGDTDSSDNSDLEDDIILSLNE
UniProt O88543: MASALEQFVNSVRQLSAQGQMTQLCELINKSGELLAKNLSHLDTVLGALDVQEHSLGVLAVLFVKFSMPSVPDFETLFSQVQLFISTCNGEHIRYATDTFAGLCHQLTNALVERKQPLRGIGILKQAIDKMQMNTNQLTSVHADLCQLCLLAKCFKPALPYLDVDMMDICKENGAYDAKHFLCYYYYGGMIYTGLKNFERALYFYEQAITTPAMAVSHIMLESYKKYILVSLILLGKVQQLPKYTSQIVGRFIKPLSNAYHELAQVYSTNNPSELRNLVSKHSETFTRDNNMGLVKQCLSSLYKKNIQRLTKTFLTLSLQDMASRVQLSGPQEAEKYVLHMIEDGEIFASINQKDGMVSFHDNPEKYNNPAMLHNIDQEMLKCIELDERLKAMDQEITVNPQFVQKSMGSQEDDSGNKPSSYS
UniProt P97868: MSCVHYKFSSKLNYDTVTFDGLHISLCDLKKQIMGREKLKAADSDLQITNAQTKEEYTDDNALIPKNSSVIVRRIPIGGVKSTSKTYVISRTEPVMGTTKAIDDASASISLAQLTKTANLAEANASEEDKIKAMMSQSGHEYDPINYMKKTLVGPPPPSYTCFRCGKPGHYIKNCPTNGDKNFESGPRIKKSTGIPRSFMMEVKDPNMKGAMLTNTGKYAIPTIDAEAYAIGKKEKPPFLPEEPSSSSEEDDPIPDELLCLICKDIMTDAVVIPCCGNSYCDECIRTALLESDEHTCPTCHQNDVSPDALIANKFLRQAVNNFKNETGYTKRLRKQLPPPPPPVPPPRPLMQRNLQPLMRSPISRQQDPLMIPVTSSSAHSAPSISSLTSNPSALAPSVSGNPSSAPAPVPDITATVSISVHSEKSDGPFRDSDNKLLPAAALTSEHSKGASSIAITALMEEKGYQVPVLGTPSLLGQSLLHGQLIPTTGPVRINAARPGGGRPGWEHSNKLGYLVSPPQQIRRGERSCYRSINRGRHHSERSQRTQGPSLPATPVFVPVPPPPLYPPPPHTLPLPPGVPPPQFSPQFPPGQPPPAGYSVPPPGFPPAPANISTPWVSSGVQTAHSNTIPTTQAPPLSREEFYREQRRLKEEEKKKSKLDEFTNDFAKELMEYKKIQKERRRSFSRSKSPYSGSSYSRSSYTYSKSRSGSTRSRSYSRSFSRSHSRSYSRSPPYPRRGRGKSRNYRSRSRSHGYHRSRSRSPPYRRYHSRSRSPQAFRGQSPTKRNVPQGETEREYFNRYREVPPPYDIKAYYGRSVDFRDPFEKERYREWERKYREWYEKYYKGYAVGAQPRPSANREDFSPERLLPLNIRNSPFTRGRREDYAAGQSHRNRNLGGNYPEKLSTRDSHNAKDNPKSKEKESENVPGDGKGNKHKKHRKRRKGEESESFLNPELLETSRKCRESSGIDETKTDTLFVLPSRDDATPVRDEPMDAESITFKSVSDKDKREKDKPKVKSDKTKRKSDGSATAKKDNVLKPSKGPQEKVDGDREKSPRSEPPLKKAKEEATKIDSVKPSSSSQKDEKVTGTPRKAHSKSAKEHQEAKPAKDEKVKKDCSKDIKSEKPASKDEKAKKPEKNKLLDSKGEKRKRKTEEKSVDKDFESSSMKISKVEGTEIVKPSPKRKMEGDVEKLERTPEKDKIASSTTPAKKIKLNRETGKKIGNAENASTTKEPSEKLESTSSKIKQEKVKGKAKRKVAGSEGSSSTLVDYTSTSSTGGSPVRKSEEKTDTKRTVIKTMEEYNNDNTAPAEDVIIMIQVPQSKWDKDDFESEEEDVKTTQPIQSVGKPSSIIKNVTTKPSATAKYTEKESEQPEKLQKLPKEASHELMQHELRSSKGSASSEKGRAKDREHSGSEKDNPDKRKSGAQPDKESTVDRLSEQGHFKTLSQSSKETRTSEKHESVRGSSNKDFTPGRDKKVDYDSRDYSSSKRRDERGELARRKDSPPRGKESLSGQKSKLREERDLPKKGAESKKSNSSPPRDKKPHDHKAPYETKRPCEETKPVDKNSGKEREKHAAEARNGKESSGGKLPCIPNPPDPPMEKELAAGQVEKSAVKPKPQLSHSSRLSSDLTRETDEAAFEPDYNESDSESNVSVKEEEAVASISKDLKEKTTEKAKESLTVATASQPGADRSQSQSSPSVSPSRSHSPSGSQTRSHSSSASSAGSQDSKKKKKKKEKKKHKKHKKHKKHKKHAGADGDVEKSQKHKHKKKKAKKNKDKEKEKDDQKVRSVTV
UniProt P70388: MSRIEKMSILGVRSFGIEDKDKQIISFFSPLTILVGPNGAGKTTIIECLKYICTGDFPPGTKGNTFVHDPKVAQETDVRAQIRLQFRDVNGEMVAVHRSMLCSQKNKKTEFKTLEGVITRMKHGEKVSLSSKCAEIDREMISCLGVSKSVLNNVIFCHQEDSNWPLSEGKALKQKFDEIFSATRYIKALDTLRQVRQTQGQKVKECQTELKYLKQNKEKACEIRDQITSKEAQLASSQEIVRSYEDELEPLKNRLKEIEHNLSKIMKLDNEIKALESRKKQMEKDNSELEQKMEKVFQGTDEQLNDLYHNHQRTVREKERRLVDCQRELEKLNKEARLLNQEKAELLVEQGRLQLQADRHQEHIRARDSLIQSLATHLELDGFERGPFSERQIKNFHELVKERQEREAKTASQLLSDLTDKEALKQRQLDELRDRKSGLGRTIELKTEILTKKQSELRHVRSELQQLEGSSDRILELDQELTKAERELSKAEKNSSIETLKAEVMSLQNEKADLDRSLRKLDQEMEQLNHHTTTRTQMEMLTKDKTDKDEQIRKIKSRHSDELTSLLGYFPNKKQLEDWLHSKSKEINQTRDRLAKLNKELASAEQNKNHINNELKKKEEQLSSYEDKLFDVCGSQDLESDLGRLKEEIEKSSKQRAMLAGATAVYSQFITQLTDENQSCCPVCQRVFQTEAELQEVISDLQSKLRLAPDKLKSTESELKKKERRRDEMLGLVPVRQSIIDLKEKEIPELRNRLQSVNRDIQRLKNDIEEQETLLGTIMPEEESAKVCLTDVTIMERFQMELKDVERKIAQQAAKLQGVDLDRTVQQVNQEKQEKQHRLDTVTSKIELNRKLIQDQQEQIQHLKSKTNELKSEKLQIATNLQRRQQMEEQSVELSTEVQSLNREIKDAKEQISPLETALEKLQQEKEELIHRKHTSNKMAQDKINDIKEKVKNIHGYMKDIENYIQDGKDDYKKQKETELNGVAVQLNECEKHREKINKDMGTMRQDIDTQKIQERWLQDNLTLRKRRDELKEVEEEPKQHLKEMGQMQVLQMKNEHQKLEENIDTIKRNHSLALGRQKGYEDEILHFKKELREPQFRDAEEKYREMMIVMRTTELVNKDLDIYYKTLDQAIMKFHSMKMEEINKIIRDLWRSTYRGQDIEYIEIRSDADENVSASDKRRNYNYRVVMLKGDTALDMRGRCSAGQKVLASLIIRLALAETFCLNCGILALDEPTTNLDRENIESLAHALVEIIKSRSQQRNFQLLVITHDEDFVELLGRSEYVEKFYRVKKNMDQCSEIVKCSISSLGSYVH

| Molecule | binding [1] | binding [2] |
| --- | --- | --- |
| COPS3 (from UniProt O88543 1-423) | binds | binds |
| NBS1 (protein, UniProt Q9R207 1-751) MWKLLPAAGAAPGEPYRLLAGVEYVVGRKNCGILIENDQSISRNHAVLTVNFPVTSLSQTDEIPTLTIKDNSKYGTFVNEEKMQTGLSCTLKTGDRVTFGVFESKFRVEYEPLVVCSSCLDVSGKTVLNQAILQLGGLTANNWTEECTHLVMSAVKVTIKTICALICGRPIIKPEYFSEFLKAVESKKQPPDIESFYPPIDEPAIGSKSVDLSGRHERKQIFKGKTFVFLNAKQHKKLSSAVAFGGGEARLMAEDDEEEQSFFSAPGTCVVDVGITNTQLIISHSQKKWIHLIMDTLQRNGLRPIPEAEIGLAVIFMTTENYCNPQGQPCTELKTTTPGPSLSQVLSANGKIIPSAPVNMTTYVADTESEPADTCMPLSERPEEVKIPGLEQSSRKLSQETFNIKEAPKPSSKANNVASDTLVRGKTPSYQLSPMKFPVANKNKDWTSQQQQNSIKNYFQPCTRKRERDEDNPELSSCKSSRMELSCSLLEQTQPAGPSLWKSKEHQSQNATLDREADTSSVGGMDIELNRKSPDRKPLPTETLRPRKRKDVDLATEEEVLEELLRSTKPELAVQVKVEKQEADDTIRKKPRMDAERNRPLNGGSEPESNSALQEDEREKKDELQTESWSTKHEIANSDGLQDSSEELPRKLLLTEFRSLVVSNHNSTSRNLCVNECGPLKNFKKFKKATFPGAGKLPHIIGGSDLVGHHARKNTELEEWLKQEMEVQKQQAKEESLADDLFRYNPNVKRR | binds |  |
| DDB2 (protein, UniProt Q99J79 1-432) MAPKKCPETQKSPDVAVLLRSKSRRGPQELEPEAKKLRVQGPVSSRTCESCCLLAELSSLQIPSRSSSIVRDLYQHKLGKATWSSLQQGLQKSFLHSLASYQVFRKAAPFDRRTTSLAWHPTHPSTLAVGSKGGDIMIWNFGIKDKPIFLKGIGAGGSITGLKFNHLNTNQFFASSMEGTTRLQDFKGNILRVYTSSNSCKVWFCSLDVSAKSRVVVTGDNMGHVILLSTDGKELWNLRMHKKKVAHVALNPCCDWLLATASIDQTVKIWDLRQIKGKDSFLYSLPHRHPVNAACFSPDGARLLTTDQNNEIRVYSASQWDSPLNLISHPHRHFQHLTPIKATWHSRHNLIVVGRYPDPNLKSCVPYELRTIDVFDGSSGKMMCQLYDPGYSGITSLNEFNPMGDTLASTMGYHILIWSQEEDGSQKDHERL | binds |  |
| MRE11A (protein, UniProt Q61216 1-706) MSPTDPLDDEDTFKILVATDIHLGFMEKDAVRGNDTFVTFDEILRLALENEVDFILLGGDLFHENKPSRKTLHSCLELLRKYCMGDRPVQFEVISDQSVNFGFSKFPWVNYQDGNLNISIPVFSIHGNHDDPTGADALCALDVLSCAGFVNHFGRSMSVEKVDISPVLLQKGSTKLALYGLGSIPDERLYRMFVNKKVTMLRPKEDENSWFNLFVIHQNRSKHGNTNFIPEQFLDDFIDLVIWGHEHECKIGPIKNEQQLFYVSQPGSSVVTSLSPGEAVKKHVGLLRIKGRKMNMQKLPLRTVRRFFIEDVVLANHPNLFNPDNPKVTQAIQSFCLEKIEEMLDSAERERLGNPQQPGKPLIRLRVDYSGGFEPFNVLRFSQKFVDRVANPKDVIHFFRHREQKGKTGEEINFGMLITKPASEGATLRVEDLVKQYFQTAEKNVQLSLLTERGMGEAVQEFVDKEEKDAIEELVKYQLEKTQRFLKERHIDALEDKIDEEVRRFRESRQRNTNEEDDEVREAMSRARALRSQSETSTSAFSAEDLSFDTSEQTANDSDDSLSAVPSRGRGRGRGRRGARGQSSAPRGGSQRGRDTGLEITTRGRSSKATSSTSRNMSIIDAFRSTRQQPSRNVAPKNYSETIEVDDSDEDDIFPTNSRADQRWSGTTSSKRMSQSQTAKGVDFESDEDDDDDPFMSSSCPRRNRR | binds | binds |

Second part, the molecule after the results:

| binding [1] | binding [2] | Molecule |
| --- | --- | --- |
| binds | binds | RBBP6 (from UniProt P97868 1-1790) |
| binds |  | Vprbp (DCAF1) (from UniProt Q80TR8 1-1506) |
| binds | binds | RAD50 (from UniProt P70388 1-1312) |
| binds | binds | Top1 (protein, UniProt Q04750 1-767) MSGDHLHNDSQIEADFRLNDSHKHKDKHKDREHRHKEHKKDKDKDREKSKHSNSEHKDSEKKHKEKEKTKHKDGSSEKHKDKHKDRDKERRKEEKIRAAGDAKIKKEKENGFSSPPRIKDEPEDDGYFAPPKEDIKPLKRLRDEDDADYKPKKIKTEDIKKEKKRKSEEEEDGKLKKPKNKDKDKKVAEPDNKKKKPKKEEEQKWKWWEEERYPEGIKWKFLEHKGPVFAPPYEPLPESVKFYYDGKVMKLSPKAEEVATFFAKMLDHEYTTKEIFRKNFFKDWRKEMTNDEKNTITNLSKCDFTQMSQYFKAQSEARKQMSKEEKLKIKEENEKLLKEYGFCVMDNHRERIANFKIEPPGLFRGRGNHPKMGMLKRRIMPEDIIINCSKDAKVPSPPPGHKWKEVRHDNKVTWLVSWTENIQGSIKYIMLNPSSRIKGEKDWQKYETARRLKKCVDKIRNQYREDWKSKEMKVRQRAVALYFIDKLALRAGNEKEEGETADTVGCCSLRVEHINLHPELDGQEYVVEFDFPGKDSIRYYNKVPVEKRVFKNLQLFMENKQPEDDLFDRLNTGILNKHLQDLMEGLTAKVFRTYNASITLQQQLKELTAPDENVPAKILSYNRANRAVAILCNHQRAPPKTFEKSMMNLQSKIDAKKDQLADARRDLKSAKADAKVMKDAKTKKVVESKKKAVQRLEEQLMKLEVQATDREENKQIALGTSKLNYLDPRITVAWCKKWGVPIEKIYNKTQREKFAWAIDMTDEDYEF |
| binds | binds | SMC1A (protein, UniProt Q9CU62 1-1233) MGFLKLIEIENFKSYKGRQIIGPFQRFTAIIGPNGSGKSNLMDAISFVLGEKTSNLRVKTLRDLIHGAPVGKPAANRAFVSMVYSEEGAEDRTFARVIVGGSSEYKINNKVVQLHEYSEELEKLGILIKARNFLVFQGAVESIAMKNPKERTALFEEISRSGELAQEYDKRKKEMVKAEEDTQFNYHRKKNIAAERKEAKQEKEEADRYQRLKDEVVRAQVQLQLFKLYHNEVEIEKLNKELASKNKEIEKDKKRMDKVEDELKEKKKELGKMMREQQQIEKEIKEKDSELNQKRPQYIKAKENTSHKIKKLEAAKKSLQNAQKHYKKRKGDMDELEKEMLSVEKARQEFEERMEEESQSQGRDLTLEENQVKKYHRLKEEASKRAATLAQELEKFNRDQKADQDRLDLEERKKVETEAKIKQKLREIEENQKRIEKLEEYITTSKQSLEEQKKLEGELTEEVEMAKRRIDEINKELNQVMEQLGDARIDRQESSRQQRKAEIMESIKRLYPGSVYGRLIDLCQPTQKKYQIAVTKVLGKNMDAIIVDSEKTGRDCIQYIKEQRGEPETFLPLDYLEVKPTDEKLRELKGAKLVIDVIRYEPPHIKKALQYACGNALVCDNVEDARRIAFGGHQRHKTVALDGTLFQKSGVISGGASDLKAKARRWDEKAVDKLKEKKERLTEELKEQMKAKRKEAELRQVQSQAHGLQMRLKYSQSDLEQTKTRHLALNLQEKSKLESELANFGPRINDIKRIIQSREREMKDLKEKMNQVEDEVFEEFCREIGVRNIREFEEEKVKRQNEIAKKRLEFENQKTRLGIQLDFEKNQLKEDQDKVHMWEQTVKKDENEIEKLKKEEQRHMKIIDETMAQLQDLKNQHLAKKSEVNDKNHEMEEIRKKLGGANKEMTHLQKEVTAIETKLEQKRSDRHNLLQACKMQDIKLPLSKGTMDDISQEEGSSQGEESVSGSQRTSSIYAREALIEIDYGDLCEDLKDAQAEEEIKQEMNTLQQKLNEQQSVLQRIAAPNMKAMEKLESVRDKFQETSDEFEAARKRAKKAKQAFEQIKKERFDRFNACFESVATNIDEIYKALSRNSSAQAFLGPENPEEPYLDGINYNCVAPGKRFRPMDNLSGGEKTVAALALLFAIHSYKPAPFFVLDEIDAALDNTNIGKVANYIKEQSTCNFQAIVISLKEEFYTKAESLIGVYPEQGDCVISKVLTFDLTKYPDANPNPNEQ |

Source: paper PMC7888682
